Assay results reported in US9707265B2, “Treatment of muscular dystrophy” (The University of Sheffield, priority 2012, dated 2017).
Entries after “also recorded” stand apart in the source; their conditions may differ. At least one structure is not confirmed: it was looked up by name or label, or the drawing left a doubt.

Experiments:
sapje zebrafish = test: Rescue of the dystrophic phenotype (muscle integrity, actin:GFP) in sapje zebrafish embryos; assay type: in vivo; details: for effect on the dystrophic phenotype of sapje zebrafish: sapje embryos treated from 24 hpf, actin:GFP as marker of muscle integrity
Method: Zebrafish embryos were collected from group matings of heterozygous sapje ta222a (a dystrophin mutant) and homozygous for a transgene that labels all the fast muscle with GFP (actin:GFP;). At 24 hours post fertilization (hpf) embryos were dechorionated enzymatically, washed and arrayed into multiwell plates with 40 embryos per treatment (5 embryos per well). Sapje embryos are produced at normal Mendelian frequencies, so from 40 embryos we expect 10 homozygote for sapje. Compounds to be tested were added to a final concentration based on available clinical or mouse studies for EC50. All plates included negative controls. Live embryos were assayed for muscle degeneration using actin:GFP as a marker of muscle integrity in sapje fish. Fluorescent scans for GFP along the body axis of wildtype siblings or mutant fish reveal a dramatic profile of fluorescence intensity which clearly distinguished the normal muscle from damaged muscle.

β-dystroglycan = test: Western blot analysis of β-dystroglycan and phosphorylated β-dystroglycan in sapje fish; assay type: in vivo, zebrafish
Method: FIG. 16. Illustrates western blot analysis of β-dystroglycan (β-DG) and phosphorylated β-dystroglycan (p β-DG) in sapje fish (blue bars) and in sapje fish treated with 1 μM of the proteasomal inhibitor MG132 (purple bars).

b-dystroglycan = test: Western blotting of tyrosine phosphorylated b-dystroglycan in myoblast cell lysates; assay type: cell-based, mouse; details: dose dependent

SMILES | effect on the dystrophic phenotype of sapje zebrafish (sapje zebrafish) | effect of adding 0.5 μM MG132 on the dose-dependent effect of Dasatinib on the dystrophic phenotype (sapje zebrafish; Dasatinib 0.062, 0.125 and 0.25 μM plus 0.5 μM MG132) | dystroglycan phosphorylation in sapje zebrafish larvae, quantified (β-dystroglycan; 10 μM) | dystroglycan phosphorylation in sapje zebrafish (β-dystroglycan; western blotting) | tyrosine phosphorylation of b-dystroglycan in mouse myoblast cells (b-dystroglycan)
CN1CCN(CCOc2cc(OC3CCOCC3)c3c(Nc4c(Cl)ccc5c4OCO5)ncnc3c2)CC1 [Saracatinib] | Qualitatively similar results | – | – | – | –
Cc1nc(Nc2ncc(C(=O)Nc3c(C)cccc3Cl)s2)cc(N2CCN(CCO)CC2)n1 [Dasatinib] | improves significantly; also recorded: dose dependent rescue | potentiating effect | significant quantifiable effect | reduction in dystroglycan phosphorylation; also recorded: inhibits the phosphorylation | inhibits significantly
